Literature values in patent US20250241906A1, “ANABOLIC DRUGS STIMULATING TYPE II COLLAGEN PRODUCTION FROM CHONDROCYTES OR THEIR PROGENITORS” (UNIVERSITY OF CENTRAL FLORIDA RESEARCH FOUNDATION, INC., priority 2022, published 2025).
At least one read-out could not be matched to a standard name with certainty.

Settings: cited from earlier work

In the case of Promoline [Drug 84], the “blood brain barrier permeability” value is listed as “low blood brain barrier permeability”.
